According to patent US11013717B1, “Methods and compositions for treating cancer using SERCA pump inhibitors” (priority 2018, dated 2021):
At least one structure is not confirmed: it was looked up by name or label, or the drawing left a doubt.

Tested on: CD8+ T-cells isolated from human PBMCs
Test: Activation of anti-CD3/anti-CD28 stimulated CD8+ T-cells treated with SERCA inhibitors, cytokine release (IFNγ, TNFα) by intracellular staining flow cytometry
Format: cell-based
Conditions: human CD8+ T-cells stimulated with anti-CD3/anti-CD28 beads, overnight incubation, thapsigargin 1.5 μM, cyclopiazonic acid 3 μM, NS-1619 30-100 μM
Description: CD8+ T-cells were isolated from human PBMCs using negative magnetic bead selection (Stemcell Technologies). Cells stimulated with anti-CD3/anti-CD28 beads (Life Technologies) and were treated with different SERCA inhibitors: thapsigargin (1.5 μM), cyclopiazonic acid (3 μM), and NS-1619 (30-100 μM). All incubations were done overnight. Subsequent activation was measured by cytokine release using intracellular staining flow cytometry of IFNγ and TNFα, using fluorescently labeled antibodies (Biolegend).

CC(=O)C1=C(O)[C@@H]2[C@H]3c4c[nH]c5cccc(c45)C[C@H]3C(C)(C)N2C1=O [cyclopiazonic acid]
T cell activation (activation measured by cytokine release): led to T cell activation | interferon gamma (IFNγ) production / secretion by CD8+ T cells: increased
